The source of these data is the supplement of paper PMC12819154, “High-throughput peptide-centric local stability assay extends protein–ligand identification to membrane proteins, tissues and bacteria” (Nature Structural & Molecular Biology, 2025).

Amino acid sequences for entries named in this document (tags omitted). A change or cut given only in a name is not applied to a line headed by its entry.
UniProt Q9Y490: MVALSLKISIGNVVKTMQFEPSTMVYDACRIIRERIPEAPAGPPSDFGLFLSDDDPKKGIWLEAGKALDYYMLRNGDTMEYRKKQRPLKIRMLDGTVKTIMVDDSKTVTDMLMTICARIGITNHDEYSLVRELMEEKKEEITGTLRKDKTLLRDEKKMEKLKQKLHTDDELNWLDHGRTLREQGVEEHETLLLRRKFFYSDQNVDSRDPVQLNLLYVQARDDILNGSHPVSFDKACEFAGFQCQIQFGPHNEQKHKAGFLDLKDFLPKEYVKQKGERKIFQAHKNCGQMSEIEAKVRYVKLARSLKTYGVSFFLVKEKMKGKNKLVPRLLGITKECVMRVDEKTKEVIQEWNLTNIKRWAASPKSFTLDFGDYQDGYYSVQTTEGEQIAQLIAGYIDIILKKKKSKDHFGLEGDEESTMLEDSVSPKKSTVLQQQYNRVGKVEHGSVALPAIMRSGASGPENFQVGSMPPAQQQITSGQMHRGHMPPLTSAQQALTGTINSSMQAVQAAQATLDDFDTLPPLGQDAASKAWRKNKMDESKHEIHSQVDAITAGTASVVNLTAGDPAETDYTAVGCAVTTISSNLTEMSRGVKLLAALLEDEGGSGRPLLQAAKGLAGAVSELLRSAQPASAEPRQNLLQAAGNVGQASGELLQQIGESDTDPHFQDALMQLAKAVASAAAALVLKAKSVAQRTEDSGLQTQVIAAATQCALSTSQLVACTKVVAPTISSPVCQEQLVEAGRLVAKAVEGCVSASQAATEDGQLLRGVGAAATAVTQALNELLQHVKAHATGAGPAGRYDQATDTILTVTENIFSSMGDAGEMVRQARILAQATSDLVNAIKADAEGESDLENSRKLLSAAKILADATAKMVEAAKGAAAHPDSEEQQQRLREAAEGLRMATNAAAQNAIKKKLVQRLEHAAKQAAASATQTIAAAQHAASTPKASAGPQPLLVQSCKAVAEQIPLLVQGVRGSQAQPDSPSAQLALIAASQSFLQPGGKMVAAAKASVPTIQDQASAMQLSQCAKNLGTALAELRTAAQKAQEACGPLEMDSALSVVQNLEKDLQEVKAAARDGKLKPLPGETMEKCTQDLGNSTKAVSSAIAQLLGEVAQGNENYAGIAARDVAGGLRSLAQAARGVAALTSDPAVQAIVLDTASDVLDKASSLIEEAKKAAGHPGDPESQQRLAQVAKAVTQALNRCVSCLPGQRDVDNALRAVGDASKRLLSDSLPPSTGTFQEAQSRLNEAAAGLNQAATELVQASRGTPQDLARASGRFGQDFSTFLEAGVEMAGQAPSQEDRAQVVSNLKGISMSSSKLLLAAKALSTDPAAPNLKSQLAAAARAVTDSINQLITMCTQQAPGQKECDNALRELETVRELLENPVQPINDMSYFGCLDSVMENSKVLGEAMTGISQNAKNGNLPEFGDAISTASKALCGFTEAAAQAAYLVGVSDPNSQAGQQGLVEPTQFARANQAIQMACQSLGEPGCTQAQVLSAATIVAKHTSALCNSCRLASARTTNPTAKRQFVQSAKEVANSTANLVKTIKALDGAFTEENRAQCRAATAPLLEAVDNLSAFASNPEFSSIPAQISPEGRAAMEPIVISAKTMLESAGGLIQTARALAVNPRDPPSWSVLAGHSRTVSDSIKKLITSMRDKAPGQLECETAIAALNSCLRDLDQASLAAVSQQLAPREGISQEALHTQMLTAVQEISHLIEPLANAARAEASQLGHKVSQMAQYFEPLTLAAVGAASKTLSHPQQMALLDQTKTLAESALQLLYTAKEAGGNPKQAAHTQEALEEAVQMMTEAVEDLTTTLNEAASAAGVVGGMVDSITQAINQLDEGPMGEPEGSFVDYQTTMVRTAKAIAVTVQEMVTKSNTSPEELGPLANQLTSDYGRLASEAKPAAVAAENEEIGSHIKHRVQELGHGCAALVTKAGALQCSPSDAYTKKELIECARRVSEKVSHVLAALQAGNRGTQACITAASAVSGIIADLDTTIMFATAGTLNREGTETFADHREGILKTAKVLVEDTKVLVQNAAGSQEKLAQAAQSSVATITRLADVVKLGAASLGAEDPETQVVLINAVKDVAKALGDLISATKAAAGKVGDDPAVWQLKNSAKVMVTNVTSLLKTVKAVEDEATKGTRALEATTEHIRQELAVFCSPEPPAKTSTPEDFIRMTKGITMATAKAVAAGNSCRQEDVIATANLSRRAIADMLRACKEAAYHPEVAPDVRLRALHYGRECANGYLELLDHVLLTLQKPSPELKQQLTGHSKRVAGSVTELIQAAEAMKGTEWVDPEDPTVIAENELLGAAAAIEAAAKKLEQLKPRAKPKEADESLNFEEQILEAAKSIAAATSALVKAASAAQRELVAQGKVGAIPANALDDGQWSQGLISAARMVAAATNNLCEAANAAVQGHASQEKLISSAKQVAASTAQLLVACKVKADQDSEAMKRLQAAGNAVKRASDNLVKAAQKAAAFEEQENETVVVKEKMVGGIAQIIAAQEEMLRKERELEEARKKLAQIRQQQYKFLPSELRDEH
UniProt Q9Y4G8: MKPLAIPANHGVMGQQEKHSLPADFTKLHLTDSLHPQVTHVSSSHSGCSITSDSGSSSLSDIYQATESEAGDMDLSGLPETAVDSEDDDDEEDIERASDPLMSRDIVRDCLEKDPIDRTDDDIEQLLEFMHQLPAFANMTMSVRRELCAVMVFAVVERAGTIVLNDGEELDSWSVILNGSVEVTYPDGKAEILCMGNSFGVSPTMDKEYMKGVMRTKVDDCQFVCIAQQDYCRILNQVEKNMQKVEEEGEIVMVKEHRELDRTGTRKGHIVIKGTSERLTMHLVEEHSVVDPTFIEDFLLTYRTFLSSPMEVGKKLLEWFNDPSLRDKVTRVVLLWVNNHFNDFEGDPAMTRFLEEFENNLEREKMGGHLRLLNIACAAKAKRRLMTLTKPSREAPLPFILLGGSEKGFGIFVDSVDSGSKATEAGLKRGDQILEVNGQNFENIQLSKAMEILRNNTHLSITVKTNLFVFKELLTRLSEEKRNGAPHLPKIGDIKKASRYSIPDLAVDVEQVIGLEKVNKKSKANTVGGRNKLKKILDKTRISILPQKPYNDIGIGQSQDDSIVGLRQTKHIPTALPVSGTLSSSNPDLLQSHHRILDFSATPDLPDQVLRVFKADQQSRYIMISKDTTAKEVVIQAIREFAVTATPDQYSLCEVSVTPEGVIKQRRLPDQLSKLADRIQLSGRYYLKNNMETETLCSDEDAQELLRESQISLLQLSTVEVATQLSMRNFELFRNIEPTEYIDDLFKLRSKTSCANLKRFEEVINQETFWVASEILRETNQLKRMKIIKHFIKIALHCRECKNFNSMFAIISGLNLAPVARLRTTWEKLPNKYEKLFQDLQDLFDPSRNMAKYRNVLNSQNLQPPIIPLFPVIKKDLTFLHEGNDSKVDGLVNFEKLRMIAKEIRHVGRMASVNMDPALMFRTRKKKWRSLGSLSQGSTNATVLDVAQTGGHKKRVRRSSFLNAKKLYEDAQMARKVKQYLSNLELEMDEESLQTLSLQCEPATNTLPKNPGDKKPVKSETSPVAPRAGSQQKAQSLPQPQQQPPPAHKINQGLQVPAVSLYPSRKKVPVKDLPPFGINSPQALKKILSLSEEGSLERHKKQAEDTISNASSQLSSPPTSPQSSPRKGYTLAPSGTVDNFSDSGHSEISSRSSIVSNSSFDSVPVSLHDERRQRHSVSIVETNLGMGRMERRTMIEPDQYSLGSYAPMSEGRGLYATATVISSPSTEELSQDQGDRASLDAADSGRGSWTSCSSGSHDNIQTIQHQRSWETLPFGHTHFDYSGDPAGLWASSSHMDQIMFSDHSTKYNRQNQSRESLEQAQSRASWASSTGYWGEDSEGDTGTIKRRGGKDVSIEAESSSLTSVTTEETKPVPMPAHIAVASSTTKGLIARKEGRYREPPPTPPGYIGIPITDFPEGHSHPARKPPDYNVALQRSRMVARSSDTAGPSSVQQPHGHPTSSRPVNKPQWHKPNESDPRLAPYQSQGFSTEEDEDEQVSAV
UniProt Q9Y4L1: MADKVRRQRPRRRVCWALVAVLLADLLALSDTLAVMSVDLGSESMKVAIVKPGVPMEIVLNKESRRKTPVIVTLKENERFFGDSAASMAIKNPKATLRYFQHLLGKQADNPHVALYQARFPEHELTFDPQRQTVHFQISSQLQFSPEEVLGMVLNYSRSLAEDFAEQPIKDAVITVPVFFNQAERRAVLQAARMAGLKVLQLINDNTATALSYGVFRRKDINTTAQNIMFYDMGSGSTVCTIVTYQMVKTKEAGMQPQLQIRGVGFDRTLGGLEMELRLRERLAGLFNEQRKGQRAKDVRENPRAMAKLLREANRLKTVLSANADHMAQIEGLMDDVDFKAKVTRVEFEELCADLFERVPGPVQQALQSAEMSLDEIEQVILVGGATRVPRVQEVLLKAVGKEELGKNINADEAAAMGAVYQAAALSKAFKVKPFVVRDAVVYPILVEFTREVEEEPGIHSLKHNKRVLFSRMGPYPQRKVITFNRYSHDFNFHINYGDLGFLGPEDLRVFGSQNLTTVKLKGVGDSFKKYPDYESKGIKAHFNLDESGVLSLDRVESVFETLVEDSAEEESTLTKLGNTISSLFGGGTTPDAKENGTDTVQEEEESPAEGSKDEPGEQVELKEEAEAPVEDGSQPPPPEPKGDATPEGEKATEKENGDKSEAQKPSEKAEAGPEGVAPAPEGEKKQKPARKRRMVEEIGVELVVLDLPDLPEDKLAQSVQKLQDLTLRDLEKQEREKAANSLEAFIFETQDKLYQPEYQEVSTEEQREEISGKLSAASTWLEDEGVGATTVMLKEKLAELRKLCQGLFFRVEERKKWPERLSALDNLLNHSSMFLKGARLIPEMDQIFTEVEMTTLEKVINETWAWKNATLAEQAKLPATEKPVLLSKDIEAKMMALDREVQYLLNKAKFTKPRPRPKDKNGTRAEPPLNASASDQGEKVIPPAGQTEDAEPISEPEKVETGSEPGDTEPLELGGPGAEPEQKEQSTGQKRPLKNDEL
UniProt Q9Y592: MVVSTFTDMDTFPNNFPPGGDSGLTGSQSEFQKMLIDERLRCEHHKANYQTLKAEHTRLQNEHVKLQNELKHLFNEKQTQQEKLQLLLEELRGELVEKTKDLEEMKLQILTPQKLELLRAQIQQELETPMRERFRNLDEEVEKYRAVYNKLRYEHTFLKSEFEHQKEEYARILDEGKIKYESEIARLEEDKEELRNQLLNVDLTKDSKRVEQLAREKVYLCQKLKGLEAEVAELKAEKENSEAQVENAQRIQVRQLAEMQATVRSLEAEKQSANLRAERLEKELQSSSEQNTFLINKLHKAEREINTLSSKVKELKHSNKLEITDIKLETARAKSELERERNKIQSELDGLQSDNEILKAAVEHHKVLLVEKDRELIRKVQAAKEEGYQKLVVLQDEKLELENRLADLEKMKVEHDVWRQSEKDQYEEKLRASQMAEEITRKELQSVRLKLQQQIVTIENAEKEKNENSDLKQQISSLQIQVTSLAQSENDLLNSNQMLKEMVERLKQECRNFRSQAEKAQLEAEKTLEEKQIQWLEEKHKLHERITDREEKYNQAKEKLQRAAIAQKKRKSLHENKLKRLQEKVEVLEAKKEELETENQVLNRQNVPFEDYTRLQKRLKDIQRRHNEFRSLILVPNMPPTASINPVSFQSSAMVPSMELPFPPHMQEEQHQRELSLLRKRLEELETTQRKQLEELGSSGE
UniProt Q9Y5K3: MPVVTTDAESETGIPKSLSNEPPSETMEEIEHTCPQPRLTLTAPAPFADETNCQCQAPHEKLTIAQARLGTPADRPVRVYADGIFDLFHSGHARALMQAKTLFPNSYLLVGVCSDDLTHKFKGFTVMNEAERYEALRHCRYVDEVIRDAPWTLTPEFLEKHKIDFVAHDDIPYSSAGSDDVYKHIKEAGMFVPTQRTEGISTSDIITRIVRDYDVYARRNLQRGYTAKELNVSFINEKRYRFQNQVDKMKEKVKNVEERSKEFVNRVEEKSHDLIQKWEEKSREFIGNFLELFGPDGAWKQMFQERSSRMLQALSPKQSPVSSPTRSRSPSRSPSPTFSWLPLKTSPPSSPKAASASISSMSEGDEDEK
UniProt Q9Y5B8, whole entry: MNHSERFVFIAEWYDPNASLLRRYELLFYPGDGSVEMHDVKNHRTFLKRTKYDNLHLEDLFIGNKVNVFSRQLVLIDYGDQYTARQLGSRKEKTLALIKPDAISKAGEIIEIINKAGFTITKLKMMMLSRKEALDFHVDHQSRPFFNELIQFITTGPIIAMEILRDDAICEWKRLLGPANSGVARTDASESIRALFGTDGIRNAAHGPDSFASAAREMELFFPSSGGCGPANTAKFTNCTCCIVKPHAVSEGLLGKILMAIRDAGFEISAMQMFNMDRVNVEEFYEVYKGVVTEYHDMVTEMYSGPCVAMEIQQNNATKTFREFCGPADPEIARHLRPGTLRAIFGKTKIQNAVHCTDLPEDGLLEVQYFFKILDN
UniProt Q9Y6D0, whole entry: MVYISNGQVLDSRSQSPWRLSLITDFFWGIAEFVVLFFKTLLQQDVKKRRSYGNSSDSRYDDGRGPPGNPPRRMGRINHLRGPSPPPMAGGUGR

Some of the results follow. Small differences around the control level are noise.

Compound in the assay: CN[C@@H]1C[C@H]2O[C@@](C)([C@@H]1OC)n1c3ccccc3c3c4c(c5c6ccccc6n2c5c31)C(=O)NC4 [staurosporine]
In words: log2 fold change of tryptic peptide abundance, ligand vs vehicle (limited proteolysis) (log2 ratio); higher = more trypsin-susceptible (destabilized). The conditions noted are these: ligand concentration: 20 uM; sample: K562 cleared lysate; digestion: 4 min, 22 C (HT-PELSA RT4min, Orbitrap Astral).

For the target “TLN1 (peptide sequence: KIFQAHK, peptide start residue: 278) (UniProt Q9Y490)”, the log2 fold change amounted to 0.41.

Turning to “SNX13 (peptide sequence: LLAIMPDELK, peptide start residue: 881) (UniProt Q9Y5W8)”, the log2 fold change is 0.201.

Take “RAPGEF2 (peptide sequence: ILSLSEEGSLER, peptide start residue: 1087) (UniProt Q9Y4G8)”: the log2 fold change is -0.207.

For “HYOU1 (peptide sequence: RPLKNDEL, peptide start residue: 992) (UniProt Q9Y4L1)”, the log2 fold change was -0.104.

Turning to “UniProt Q9Y592 (peptide sequence: KEELETENQVLNR, peptide start residue: 592)”, the log2 fold change is -0.267.

As for “UniProt Q9Y5S9 (peptide sequence: GFGSEEGSR, peptide start residue: 39)”, the log2 fold change is -0.132.

Turning to “PCYT1B (peptide sequence: MLQALSPK, peptide start residue: 310) (UniProt Q9Y5K3)”, the log2 fold change was 0.0714.

Regarding “NME7 (peptide sequence: RYELLFYPGDGSVEMHDVK, peptide start residue: 23) (UniProt Q9Y5B8)”, the log2 fold change was -0.126.

As for “UniProt Q9Y6D0 (peptide sequence: YDDGRGPPGNPPR, peptide start residue: 60)”, the log2 fold change amounted to 0.526.

Consider “UniProt Q9Y4C1 (peptide sequence: LFSKPASK, peptide start residue: 760)”, for which the log2 fold change was 0.523.

As for “SNX11 (peptide sequence: GDQPKSCCFLPR, peptide start residue: 175) (UniProt Q9Y5W9)”, the log2 fold change is -0.4.
